According to patent publication US10772896B2, “Process for preparing a dry powder formulation comprising an anticholinergic, a corticosteroid and a beta-adrenergic” (CHIESI FARMACEUTICI S.P.A., priority 2015, dated 2020):
Counter-ions that a name gives are not always drawn.

Assay: Uniformity of distribution of the active ingredients in the blend (10 samples, HPLC)
Format: physicochemical
Details: dry powder formulation of Example 2; mean value ± RSD
Description: The uniformity of distribution of the active ingredients was evaluated by withdrawing 10 samples from different parts of the blend and evaluated by HPLC

COc1ccc(CC(C)NCC(O)c2ccc(O)c(NC=O)c2)cc1 (stereo not shown) [FF, formoterol fumarate dihydrate]
Uniformity of distribution: 100.5 (±1.5)
